Data: the supplement of paper PMC10849652
Some of the results follow.

By UniProt entry, the sequences of proteins in these tests, tags left out. Where a name states a change or a piece, a line headed by the entry shows the natural chain unless it says otherwise.
UniProt Q6ZRV2: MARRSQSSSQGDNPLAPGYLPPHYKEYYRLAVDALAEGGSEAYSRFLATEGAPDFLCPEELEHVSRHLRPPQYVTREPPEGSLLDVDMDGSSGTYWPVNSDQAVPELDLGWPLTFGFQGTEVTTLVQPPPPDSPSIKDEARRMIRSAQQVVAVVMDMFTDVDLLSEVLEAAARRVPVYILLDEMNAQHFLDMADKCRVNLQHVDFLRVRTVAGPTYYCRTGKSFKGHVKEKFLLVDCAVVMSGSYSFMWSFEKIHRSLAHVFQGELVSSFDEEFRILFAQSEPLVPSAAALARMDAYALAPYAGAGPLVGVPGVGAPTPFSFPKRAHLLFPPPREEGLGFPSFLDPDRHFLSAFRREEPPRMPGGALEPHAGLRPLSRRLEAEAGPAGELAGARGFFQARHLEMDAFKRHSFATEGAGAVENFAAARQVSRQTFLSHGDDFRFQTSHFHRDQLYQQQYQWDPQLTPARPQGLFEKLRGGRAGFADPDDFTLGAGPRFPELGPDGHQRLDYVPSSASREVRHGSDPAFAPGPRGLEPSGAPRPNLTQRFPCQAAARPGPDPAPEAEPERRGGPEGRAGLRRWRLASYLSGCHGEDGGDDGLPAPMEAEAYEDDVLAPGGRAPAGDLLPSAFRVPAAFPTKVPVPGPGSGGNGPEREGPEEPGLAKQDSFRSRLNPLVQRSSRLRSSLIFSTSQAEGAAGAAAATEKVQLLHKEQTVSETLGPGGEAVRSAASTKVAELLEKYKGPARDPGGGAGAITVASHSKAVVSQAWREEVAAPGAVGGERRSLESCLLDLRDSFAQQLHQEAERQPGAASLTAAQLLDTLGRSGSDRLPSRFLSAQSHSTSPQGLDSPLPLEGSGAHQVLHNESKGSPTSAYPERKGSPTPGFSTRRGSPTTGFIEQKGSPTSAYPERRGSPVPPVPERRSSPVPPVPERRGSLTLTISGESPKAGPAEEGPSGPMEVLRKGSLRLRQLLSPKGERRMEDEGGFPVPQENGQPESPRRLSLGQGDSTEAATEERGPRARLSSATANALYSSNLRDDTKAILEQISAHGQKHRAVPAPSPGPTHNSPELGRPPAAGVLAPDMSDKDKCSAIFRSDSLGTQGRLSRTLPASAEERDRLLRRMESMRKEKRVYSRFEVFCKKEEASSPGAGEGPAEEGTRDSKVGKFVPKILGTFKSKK
UniProt Q96SL8: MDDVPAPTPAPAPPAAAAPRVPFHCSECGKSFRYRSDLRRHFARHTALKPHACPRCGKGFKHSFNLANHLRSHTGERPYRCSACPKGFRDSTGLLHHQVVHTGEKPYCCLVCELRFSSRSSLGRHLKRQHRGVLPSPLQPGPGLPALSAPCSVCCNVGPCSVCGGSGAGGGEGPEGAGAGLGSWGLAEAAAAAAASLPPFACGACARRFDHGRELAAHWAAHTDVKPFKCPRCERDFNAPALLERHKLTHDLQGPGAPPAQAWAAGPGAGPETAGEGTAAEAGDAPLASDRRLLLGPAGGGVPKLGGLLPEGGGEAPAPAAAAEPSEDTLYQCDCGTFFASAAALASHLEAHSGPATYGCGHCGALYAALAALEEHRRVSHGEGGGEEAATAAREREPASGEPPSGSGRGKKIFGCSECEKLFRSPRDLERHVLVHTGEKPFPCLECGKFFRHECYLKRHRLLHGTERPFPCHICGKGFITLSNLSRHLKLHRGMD
UniProt Q8IVF7, whole entry, looked up: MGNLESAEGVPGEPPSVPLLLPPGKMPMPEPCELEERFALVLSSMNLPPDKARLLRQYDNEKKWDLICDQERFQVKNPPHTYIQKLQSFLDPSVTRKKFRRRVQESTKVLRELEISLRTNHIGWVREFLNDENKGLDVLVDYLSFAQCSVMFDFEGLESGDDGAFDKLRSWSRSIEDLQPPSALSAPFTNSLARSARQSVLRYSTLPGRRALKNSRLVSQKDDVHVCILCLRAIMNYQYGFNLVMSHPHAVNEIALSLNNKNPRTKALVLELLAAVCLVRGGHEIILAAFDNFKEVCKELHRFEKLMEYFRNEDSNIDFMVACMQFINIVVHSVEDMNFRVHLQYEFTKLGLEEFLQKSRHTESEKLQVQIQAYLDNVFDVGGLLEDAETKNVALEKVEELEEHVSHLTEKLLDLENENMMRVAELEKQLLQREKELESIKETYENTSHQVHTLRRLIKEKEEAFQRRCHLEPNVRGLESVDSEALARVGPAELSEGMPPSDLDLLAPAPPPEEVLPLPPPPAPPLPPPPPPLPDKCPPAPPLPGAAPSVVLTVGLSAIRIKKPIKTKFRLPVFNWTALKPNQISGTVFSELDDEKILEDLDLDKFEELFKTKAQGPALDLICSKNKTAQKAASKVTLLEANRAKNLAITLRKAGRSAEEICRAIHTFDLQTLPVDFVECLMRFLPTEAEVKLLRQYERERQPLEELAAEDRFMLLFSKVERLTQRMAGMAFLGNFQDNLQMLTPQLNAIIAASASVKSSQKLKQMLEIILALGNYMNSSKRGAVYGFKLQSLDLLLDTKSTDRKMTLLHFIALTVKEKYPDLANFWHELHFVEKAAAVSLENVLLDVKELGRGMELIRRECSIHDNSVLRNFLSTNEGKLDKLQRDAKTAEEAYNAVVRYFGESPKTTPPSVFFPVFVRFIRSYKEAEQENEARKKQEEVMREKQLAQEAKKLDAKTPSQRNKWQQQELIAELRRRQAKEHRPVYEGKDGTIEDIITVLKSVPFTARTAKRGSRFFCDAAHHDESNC
UniProt Q6PJ61: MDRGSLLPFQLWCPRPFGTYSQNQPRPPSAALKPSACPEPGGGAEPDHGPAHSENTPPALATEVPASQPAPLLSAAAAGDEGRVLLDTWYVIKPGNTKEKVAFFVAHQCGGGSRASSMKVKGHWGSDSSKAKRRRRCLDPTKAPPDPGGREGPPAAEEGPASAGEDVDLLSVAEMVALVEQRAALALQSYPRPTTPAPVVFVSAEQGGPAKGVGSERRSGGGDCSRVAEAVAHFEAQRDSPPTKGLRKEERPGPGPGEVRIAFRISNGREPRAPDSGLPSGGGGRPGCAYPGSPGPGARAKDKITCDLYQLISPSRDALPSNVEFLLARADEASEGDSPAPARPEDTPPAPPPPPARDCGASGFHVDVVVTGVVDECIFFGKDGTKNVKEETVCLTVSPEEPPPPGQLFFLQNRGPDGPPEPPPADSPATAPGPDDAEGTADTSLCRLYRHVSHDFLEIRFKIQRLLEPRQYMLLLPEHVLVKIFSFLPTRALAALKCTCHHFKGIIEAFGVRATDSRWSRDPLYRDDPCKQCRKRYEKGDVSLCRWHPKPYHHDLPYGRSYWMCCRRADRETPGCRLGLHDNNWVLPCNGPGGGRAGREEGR
UniProt Q7Z6M2: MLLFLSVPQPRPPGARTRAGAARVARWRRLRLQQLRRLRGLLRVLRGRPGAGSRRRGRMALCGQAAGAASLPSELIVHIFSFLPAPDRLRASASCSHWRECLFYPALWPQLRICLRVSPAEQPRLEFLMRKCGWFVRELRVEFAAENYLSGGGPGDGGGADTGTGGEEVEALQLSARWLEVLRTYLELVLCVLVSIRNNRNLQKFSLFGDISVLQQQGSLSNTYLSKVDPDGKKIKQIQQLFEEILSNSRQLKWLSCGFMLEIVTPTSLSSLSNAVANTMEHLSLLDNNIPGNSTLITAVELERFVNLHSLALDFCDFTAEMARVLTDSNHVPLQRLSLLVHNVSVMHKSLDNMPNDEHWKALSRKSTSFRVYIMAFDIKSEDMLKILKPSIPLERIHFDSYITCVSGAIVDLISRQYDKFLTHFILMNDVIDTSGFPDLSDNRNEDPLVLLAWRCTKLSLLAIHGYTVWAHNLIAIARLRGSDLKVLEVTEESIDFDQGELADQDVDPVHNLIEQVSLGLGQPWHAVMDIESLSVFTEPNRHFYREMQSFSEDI
UniProt P01100, whole entry, looked up: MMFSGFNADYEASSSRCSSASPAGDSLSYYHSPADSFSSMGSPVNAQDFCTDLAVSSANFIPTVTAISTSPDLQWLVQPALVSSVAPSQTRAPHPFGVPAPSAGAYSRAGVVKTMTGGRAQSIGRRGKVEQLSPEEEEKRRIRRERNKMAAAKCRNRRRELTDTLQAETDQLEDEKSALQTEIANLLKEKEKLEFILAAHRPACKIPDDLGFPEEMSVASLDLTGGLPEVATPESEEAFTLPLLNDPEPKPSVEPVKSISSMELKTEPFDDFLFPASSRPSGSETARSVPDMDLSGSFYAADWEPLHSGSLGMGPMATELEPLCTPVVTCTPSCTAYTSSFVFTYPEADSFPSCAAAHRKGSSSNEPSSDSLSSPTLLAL
UniProt Q9UKT8: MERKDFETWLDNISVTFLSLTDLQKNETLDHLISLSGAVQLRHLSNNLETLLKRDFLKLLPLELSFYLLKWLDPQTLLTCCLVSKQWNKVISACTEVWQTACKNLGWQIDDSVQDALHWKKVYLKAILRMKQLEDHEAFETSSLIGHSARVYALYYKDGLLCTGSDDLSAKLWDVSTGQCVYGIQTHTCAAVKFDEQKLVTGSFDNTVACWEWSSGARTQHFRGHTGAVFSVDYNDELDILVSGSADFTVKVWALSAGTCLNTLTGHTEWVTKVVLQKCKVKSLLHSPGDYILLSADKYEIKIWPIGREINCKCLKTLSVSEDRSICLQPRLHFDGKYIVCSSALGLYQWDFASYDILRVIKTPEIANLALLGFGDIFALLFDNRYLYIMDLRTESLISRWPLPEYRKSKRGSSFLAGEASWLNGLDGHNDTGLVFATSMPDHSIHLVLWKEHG
UniProt Q9Y4F1: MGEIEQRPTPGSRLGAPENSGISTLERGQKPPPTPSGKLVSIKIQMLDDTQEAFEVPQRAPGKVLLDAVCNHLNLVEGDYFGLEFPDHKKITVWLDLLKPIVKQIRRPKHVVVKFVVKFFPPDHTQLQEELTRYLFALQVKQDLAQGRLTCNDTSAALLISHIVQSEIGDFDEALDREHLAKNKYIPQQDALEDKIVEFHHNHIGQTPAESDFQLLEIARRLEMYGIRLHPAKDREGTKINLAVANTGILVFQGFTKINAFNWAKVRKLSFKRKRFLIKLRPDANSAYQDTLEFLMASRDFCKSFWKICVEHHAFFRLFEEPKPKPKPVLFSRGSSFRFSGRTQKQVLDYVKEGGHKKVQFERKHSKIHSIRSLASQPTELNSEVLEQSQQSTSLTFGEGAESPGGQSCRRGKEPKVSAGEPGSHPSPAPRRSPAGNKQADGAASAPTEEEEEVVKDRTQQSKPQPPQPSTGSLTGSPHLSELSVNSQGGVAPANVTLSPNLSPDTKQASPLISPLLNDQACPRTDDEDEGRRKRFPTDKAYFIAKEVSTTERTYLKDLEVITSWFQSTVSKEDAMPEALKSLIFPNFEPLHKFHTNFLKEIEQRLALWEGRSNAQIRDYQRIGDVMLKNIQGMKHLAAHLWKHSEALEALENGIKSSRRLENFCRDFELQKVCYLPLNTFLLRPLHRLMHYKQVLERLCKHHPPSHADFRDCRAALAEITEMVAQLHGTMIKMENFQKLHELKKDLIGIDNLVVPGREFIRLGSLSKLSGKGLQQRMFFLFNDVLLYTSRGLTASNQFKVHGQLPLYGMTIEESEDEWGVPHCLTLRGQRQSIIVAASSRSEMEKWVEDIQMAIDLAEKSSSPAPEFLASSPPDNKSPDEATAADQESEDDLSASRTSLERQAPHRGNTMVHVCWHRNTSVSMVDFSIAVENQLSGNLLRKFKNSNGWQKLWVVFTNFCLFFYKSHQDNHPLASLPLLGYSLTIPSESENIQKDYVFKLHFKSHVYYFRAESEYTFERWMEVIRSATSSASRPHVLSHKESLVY
UniProt Q96AY3, whole entry, looked up: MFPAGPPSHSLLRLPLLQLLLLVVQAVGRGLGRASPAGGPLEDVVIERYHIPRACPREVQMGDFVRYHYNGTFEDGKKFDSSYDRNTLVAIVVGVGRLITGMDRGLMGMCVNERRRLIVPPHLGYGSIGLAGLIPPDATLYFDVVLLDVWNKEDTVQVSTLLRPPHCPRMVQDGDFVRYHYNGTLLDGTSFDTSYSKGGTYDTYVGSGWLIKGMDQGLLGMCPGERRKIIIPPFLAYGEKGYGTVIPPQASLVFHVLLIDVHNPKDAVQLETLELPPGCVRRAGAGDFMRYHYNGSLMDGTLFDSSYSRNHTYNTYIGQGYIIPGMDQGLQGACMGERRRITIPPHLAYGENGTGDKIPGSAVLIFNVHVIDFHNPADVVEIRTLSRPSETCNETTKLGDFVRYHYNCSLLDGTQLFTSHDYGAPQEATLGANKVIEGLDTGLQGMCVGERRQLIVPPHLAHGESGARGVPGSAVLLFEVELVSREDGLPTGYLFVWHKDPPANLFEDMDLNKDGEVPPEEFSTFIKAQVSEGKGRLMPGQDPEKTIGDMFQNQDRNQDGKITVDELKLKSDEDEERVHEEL
UniProt Q92913: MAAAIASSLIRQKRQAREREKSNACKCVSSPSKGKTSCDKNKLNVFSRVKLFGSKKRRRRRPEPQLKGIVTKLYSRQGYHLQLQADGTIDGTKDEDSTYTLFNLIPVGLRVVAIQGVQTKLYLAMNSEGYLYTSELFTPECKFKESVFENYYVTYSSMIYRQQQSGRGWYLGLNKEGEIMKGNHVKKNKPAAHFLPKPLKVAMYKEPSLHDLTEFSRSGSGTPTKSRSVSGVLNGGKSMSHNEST

Tests used:
Test in all cases: log2 fold change, soluble protein after heating vs DMSO (PISA); higher = thermal stabilisation; K562 lysate, 10 uM; active = over 0.2 and 3.5 SD of the protein, either way, in both replicates (recomputed)
[1] = compound: C/C(=N\NC(=O)C1=CC(=CC=C1)S(=O)(=O)N2CCOCC2)/C3=C(C=CC(=C3)Cl)O
How it was run: (§1)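 Values give the log-two fold change in thermal stability against solvent controls, from duplicates. Crude K562 extract at 1 mg/mL protein, made by dounce homogenisation in PBS pH 7.4 with 1 mM MgCl2, was treated with 10 μM compound for 30 min. After 3 min heating across 48°C-58°C, aliquots were pooled, adjusted to 0.5% NP-40 at 4°C and centrifuged at 21,000xg for 90 min. The supernatant was measured by TMTpro 16plex LC-MS/MS with channel sums equalised.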

[2] = compound: C1=CC2=C(C=CC(=C2)/C=C\3/C(=O)NC(=NCC4=CC=CS4)S3)N=C1
How it was run: as §1

[3] = compound: C1=CC=C2C(=C1)C3=NNC4=CC=CC(=C43)C2=O
How it was run: as §1

[4] = compound: C1CCN(C1)C(=O)NC2=CC=CC(=C2)NC3=NC=C(C(=N3)NCCC4=CN=CN4)Br
How it was run: as §1

[5] = compound: C1CN(CCC1(CC2=CC=C(C=C2)Cl)N)C3=NC=NC4=C3C=CN4
How it was run: as §1

[6] = compound: C#Cc1cccc(Nc2ncnc3cc(OCCOC)c(OCCOC)cc23)c1 [erlotinib]
How it was run: as §1

[7] = compound: C1=CC(=CC=C1C2=NC3=C(N2)C=C(C=C3)C(=O)N)OC4=CC=C(C=C4)Cl
How it was run: as §1

[8] = compound: C1=CC=C(C=C1)C2=NC(=C(N2)C3=CC=NC=C3)C4=CC(=C(C=C4)Cl)O
How it was run: as §1

[9] = compound: C1COCCN1CCN2C3=CC=CC=C3N=C2NC(=O)C4=CC(=CC=C4)[N+](=O)[O-] [IRAK-1-4 Inhibitor I]
How it was run: as §1

[10] = compound: C1=CC2=NC=CN=C2C=C1/C=C/3\C(=O)NC(=O)S3
How it was run: as §1

Measured: log2 fold change

FLII isoform 2 (UniProt Q13045)
inactive: [1] -0.079 | [2] -0.189 | [3] -0.154 | [4] -0.065 | [5] -0.001

FANCC (UniProt Q00597)
inactive: [6] 0.115 | [7] -0.021 | [8] -0.003 | [9] 0.291

FBXW11 (UniProt Q9UKB1)
inactive: [6] 0.007 | [7] 0.159 | [10] -0.011 | [8] -0.029 | [4] -0.063 | [5] 0.127 | [9] 0.031

FAM83H (UniProt Q6ZRV2)
inactive: [1] 0.038 | [2] 0.051 | [3] -0.179 | [4] 0.122 | [5] 0.092

FMNL2 isoform 3 (UniProt Q96PY5)
inactive: [6] -0.02 | [7] -0.064 | [8] 0.083 | [9] -0.092

FIZ1 (UniProt Q96SL8)
inactive: [10] -0.061 | [8] -0.043 | [9] -0.062

FBXL19 (UniProt Q6PCT2)
inactive: [6] -0.072 | [7] -0.1 | [8] 0.128 | [9] -0.101

FMR1 isoform 9 (UniProt Q06787)
inactive: [6] -0.013 | [7] -0.058 | [10] -0.115 | [8] -0.074 | [9] -0.056

FMNL3 (UniProt Q8IVF7)
inactive: [10] 0.018

FBXO46 (UniProt Q6PJ61)
inactive: [1] -0.044 | [2] 0.089 | [10] -0.008 | [8] 0.004 | [3] 0.126 | [4] -0.124 | [5] -0.016 | [9] -0.056

FAT1 (UniProt Q14517)
inactive: [6] -0.004 | [7] 0.006 | [8] 0.126 | [4] -0.119 | [5] 0.128 | [9] -0.053

FGFR1OP isoform 3 (UniProt O95684)
inactive: [1] 0.057 | [2] 0.226 | [3] 0.169

FBXO28 (UniProt Q9NVF7)
inactive: [8] -0.194 | [9] -0.019

FBXO11 isoform 5 (UniProt Q86XK2)
inactive: [6] 0.177 | [7] 0.237 | [10] -0.075 | [8] 0.008 | [9] 0.045

FCGR2B (UniProt P31994)
inactive: [8] 0.001 | [4] 0.143 | [5] -0.113 | [9] -0.034

FASTKD3 (UniProt Q14CZ7)
inactive: [4] 0.137 | [5] -0.159

FBXL15 (UniProt Q9H469)
inactive: [1] 0.037 | [2] 0.125 | [8] 0.163 | [3] -0.03 | [4] -0.017 | [5] -0.016 | [9] 0.04

FBXO33 (UniProt Q7Z6M2)
inactive: [8] -0.009 | [9] -0.005

FNDC3A (UniProt Q9Y2H6)
inactive: [6] 0.198 | [7] 0.024 | [8] -0.112 | [9] 0.04

FANCG (UniProt O15287)
inactive: [1] 0.053 | [2] -0.444 | [8] -0.038 | [3] -0.195 | [4] -0.095 | [5] -0.028 | [9] -0.151

Copied from the entries so far (two entries):
FASTKD3 (UniProt Q14CZ7)
inactive: [4] 0.137 | [5] -0.159

FBXL15 (UniProt Q9H469)
inactive: [1] 0.037 | [2] 0.125 | [8] 0.163 | [3] -0.03 | [4] -0.017 | [5] -0.016 | [9] 0.04

Following part

FOS (UniProt P01100)
inactive: [4] -0.001 | [5] -0.188

FANCA (UniProt O15360)
inactive: [1] -0.201 | [2] -0.03 | [3] -0.066 | [4] -0.054 | [5] 0.065

FAXDC2 (UniProt Q96IV6)
inactive: [6] -0.02 | [7] -0.063 | [4] 0.097 | [5] 0.066

FBXW2 (UniProt Q9UKT8)
inactive: [1] 0.04 | [2] 0.046 | [10] 0.104 | [8] -0.028 | [3] 0.118 | [9] -0.172

FNTA (UniProt H0YCW1)
inactive: [8] 0.052 | [9] 0.01

FEN1 (UniProt I3L3E9)
inactive: [1] 0.015 | [2] -0.061 | [8] 0.03 | [3] 0.009 | [4] 0.014 | [5] -0.07 | [9] 0.036

FARP1 isoform 2 (UniProt Q9Y4F1)
inactive: [1] 0.043 | [2] 0.019 | [10] 0.095 | [8] 0.088 | [3] -0.057 | [4] -0.02 | [5] 0.054 | [9] -0.031

FKBP10 (UniProt Q96AY3)
inactive: [8] -0.042 | [4] 0.13 | [5] -0.074 | [9] 0.119

FGF13 isoform 3 (UniProt Q92913)
inactive: [6] 0.026 | [7] 0 | [10] 0.006 | [8] -0.029 | [4] 0.03 | [5] -0.092 | [9] 0.026

FARP2 (UniProt O94887)
inactive: [6] -0.005 | [7] -0.125 | [10] -0.155 | [8] -0.135 | [9] -0.033

FITM2 (UniProt Q8N6M3)
inactive: [10] 0.01

FIP1L1 isoform 3 (UniProt Q6UN15)
inactive: [6] 0.035 | [7] 0.194 | [8] 0.018 | [4] 0.009 | [5] 0.171 | [9] 0.028

FLYWCH1 isoform 3 (UniProt Q4VC44)
inactive: [8] -0.028 | [9] -0.017

FOPNL (UniProt Q96NB1)
inactive: [1] -0.038 | [2] 0.11 | [10] -0.045 | [8] 0.001 | [3] 0.039 | [4] -0.007 | [5] -0.05 | [9] 0.01
